# Data from PMC12273641, “A cryo-electron microscopy structure of yeast Pex5 in complex with a cargo uncovers a novel binding interface” (Journal of Cell Science, 2025).
# These are yes or no findings as the source states them, for the method shown. For some of these results: Binding seen in cells or lysates may run through a third protein. Some entries that bind do so weakly or less than the wild type. Sequences can lack the tags named with a protein.
# T1: Pex5 (full-length Saccharomyces cerevisiae Pex5, 1-612, His-Sumo fusion cleaved off) (Saccharomyces cerevisiae) (UniProt P35056)
# T1 sequence: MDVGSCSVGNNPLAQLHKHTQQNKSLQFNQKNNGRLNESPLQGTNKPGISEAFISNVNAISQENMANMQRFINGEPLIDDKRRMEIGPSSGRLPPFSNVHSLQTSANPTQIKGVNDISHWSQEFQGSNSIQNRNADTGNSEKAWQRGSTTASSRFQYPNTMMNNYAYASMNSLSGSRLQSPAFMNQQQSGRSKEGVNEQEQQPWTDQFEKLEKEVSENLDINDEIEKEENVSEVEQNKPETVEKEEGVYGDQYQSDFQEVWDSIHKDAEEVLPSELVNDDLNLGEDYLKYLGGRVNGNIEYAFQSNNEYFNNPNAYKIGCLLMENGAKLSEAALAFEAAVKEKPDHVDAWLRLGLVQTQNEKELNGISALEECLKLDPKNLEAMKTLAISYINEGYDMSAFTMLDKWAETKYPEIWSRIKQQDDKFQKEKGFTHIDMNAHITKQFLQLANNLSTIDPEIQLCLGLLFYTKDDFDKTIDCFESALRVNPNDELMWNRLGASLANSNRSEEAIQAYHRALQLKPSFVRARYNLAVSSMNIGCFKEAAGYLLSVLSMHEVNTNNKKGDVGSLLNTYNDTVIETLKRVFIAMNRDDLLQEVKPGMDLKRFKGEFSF
# T2: His-SUMO-Pex5 (full-length Saccharomyces cerevisiae Pex5, 1-612, uncleaved N-terminal His-Sumo fusion) (Saccharomyces cerevisiae) (UniProt P35056)
# T2 sequence: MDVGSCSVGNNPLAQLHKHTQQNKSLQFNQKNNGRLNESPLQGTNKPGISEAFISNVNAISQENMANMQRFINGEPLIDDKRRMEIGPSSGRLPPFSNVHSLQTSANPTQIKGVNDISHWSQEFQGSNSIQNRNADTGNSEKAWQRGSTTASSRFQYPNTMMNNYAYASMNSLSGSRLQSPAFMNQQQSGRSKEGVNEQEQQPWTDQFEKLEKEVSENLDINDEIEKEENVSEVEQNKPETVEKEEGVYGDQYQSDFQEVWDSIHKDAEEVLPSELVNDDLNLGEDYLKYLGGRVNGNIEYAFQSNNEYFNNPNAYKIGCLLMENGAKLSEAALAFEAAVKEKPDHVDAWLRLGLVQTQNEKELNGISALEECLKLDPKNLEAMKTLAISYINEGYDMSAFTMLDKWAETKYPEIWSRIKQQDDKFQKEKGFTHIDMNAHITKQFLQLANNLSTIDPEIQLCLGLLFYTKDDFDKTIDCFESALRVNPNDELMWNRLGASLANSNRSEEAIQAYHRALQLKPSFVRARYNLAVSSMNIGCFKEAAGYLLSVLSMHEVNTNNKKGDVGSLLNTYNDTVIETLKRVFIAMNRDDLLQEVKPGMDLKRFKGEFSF
# Legend:
# [1] = target: T1, Pex5 (full-length Saccharomyces cerevisiae Pex5, 1-612, His-Sumo fusion cleaved off) (Saccharomyces cerevisiae); experiment: SPR; Biacore, Pex5 immobilised by amine coupling on two channels of a CM5 chip (450 and 480 RU); Eci1 WT or Eci1ΔPTS1 as analyte, 1.95-500 nM, single-cycle kinetics, 120 s injection, 900 s dissociation, 30 µl/min, 25°C; bivalent analyte model for WT; both purified
# [2] = target: T2, His-SUMO-Pex5 (full-length Saccharomyces cerevisiae Pex5, 1-612, uncleaved N-terminal His-Sumo fusion) (Saccharomyces cerevisiae); experiment: pull-down; His-tag pull-down on Ni resin from lysates (TBS) of E. coli co-expressing His-SUMO-Pex5 with FLAG-Eci1 WT or ΔPTS1; Pex5 captured, Eci1 detected by anti-FLAG western blot
# [3] = target: T1, Pex5 (full-length Saccharomyces cerevisiae Pex5, 1-612, His-Sumo fusion cleaved off) (Saccharomyces cerevisiae); experiment: cryo-EM structure; single-particle cryo-EM of the co-expressed, co-purified Pex5–Eci1 complex (2 mg/ml, in PBS); 2.7 Å global, 2.9 Å local refinement of Pex5 and the interface; both purified
binding [1],binding [2],binding [3],Binder
binds weakly,binds,,"FLAG-Eci1ΔPTS1 (Saccharomyces cerevisiae Eci1 lacking the last three amino acids 278HRL280) (domain or fragment, UniProt Q05871 1-277) MSQEIRQNEKISYRIEGPFFIIHLMNPDNLNALEGEDYIYLGELLELADRNRDVYFTIIQSSGRFFSSGADFKGIAKAQGDDTNKYPSETSKWVSNFVARNVYVTDAFIKHSKVLICCLNGPAIGLSAALVALCDIVYSINDKVYLLYPFANLGLITEGGTTVSLPLKFGTNTTYECLMFNKPFKYDIMCENGFISKNFNMPSSNAEAFNAKVLEELREKVKGLYLPSCLGMKKLLKSNHIDAFNKANSVEVNESLKYWVDGEPLKRFRQLGSKQRK"
,binds,binds,"FLAG-Eci1 wild type (Saccharomyces cerevisiae Δ3,Δ2-enoyl-CoA isomerase 1) (natural protein, UniProt Q05871 1-280, looked up, Eci1 (Δ3,Δ2-enoyl-CoA isomerase 1), Saccharomyces cerevisiae, wild type, M1-L280, ends in the PTS1 tripeptide 278HRL280; cloned into the first open reading frame of pACYCDuet-1; A TEV cleavage site follows the N-terminal FLAG tag; no TEV cleavage is described; Hexamer by cryo-EM; also called Eci1 WT; Eci1 (WT); source: E. coli BL21(DE3): co-expressed with Pex5, in lysate (pull-down); purified …) MSQEIRQNEKISYRIEGPFFIIHLMNPDNLNALEGEDYIYLGELLELADRNRDVYFTIIQSSGRFFSSGADFKGIAKAQGDDTNKYPSETSKWVSNFVARNVYVTDAFIKHSKVLICCLNGPAIGLSAALVALCDIVYSINDKVYLLYPFANLGLITEGGTTVSLPLKFGTNTTYECLMFNKPFKYDIMCENGFISKNFNMPSSNAEAFNAKVLEELREKVKGLYLPSCLGMKKLLKSNHIDAFNKANSVEVNESLKYWVDGEPLKRFRQLGSKQRKHRL"
